Laboratory results from PMC8020760, “Assembly of a dsRNA synthesizing complex: RNA-DEPENDENT RNA POLYMERASE 2 contacts the largest subunit of NUCLEAR RNA POLYMERASE IV” (Proceedings of the National Academy of Sciences of the …, 2021).
No constants are given. Whether binding was seen depends on the method and setting. Some binding calls cover weakened binding; strength is not graded here. Sequences can lack the tags named with a protein. Values belong to the binder of their own block, whether it stands above or below them.

How the values were obtained:
[1] = target: T1, recombinant RNA-… RNA POLYMERASE 2 (RDR2), wild type, with N-terminal V5 epitope and 6xHis tags (A. thaliana) (UniProt O82504); assay: SEC; analytical gel filtration, Superdex 200 10/300 GL, 4 °C, 50 mM Hepes-KOH pH 7.5, 150 mM NaCl, mass estimated against protein standards; both purified
T1 sequence: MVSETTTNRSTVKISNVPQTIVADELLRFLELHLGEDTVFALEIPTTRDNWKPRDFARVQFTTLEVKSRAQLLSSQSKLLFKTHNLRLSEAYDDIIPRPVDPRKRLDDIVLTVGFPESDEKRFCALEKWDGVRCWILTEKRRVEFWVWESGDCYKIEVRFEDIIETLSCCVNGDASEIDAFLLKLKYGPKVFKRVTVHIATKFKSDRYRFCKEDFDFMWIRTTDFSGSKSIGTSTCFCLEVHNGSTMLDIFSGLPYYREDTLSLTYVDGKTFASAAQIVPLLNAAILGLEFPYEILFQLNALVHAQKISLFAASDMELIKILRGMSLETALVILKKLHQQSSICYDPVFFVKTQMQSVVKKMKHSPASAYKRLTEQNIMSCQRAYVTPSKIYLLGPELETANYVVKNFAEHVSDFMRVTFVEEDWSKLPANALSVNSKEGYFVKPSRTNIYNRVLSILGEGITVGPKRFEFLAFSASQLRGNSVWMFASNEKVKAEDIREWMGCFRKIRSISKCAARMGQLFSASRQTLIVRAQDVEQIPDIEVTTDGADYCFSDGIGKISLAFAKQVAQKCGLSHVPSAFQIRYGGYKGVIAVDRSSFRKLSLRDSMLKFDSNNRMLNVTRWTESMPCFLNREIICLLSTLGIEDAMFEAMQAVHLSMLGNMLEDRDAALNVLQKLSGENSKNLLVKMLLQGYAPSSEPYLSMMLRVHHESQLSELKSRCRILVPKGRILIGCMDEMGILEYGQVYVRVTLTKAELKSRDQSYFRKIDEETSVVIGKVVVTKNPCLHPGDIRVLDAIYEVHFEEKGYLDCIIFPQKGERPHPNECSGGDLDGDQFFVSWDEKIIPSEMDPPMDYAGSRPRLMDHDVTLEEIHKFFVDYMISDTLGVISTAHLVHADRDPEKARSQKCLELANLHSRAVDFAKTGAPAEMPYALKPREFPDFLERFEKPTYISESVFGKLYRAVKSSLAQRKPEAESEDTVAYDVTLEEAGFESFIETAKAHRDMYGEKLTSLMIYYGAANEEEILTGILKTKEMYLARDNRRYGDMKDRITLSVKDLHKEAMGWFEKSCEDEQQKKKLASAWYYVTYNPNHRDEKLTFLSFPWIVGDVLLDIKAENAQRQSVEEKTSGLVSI

[2] = target: T2, RDR2 peptide 13 of the RDR2_(771–970) peptide array (A. thaliana) (UniProt O82504); assay: peptide or protein array; synthetic peptides (10 ng) dot-blotted onto nitrocellulose, probed with about 200 ng NRPD1_(1–300)-FLAG or RDR2_(771–970)-HA in 8 mL 50 mM Hepes-KOH pH 7.5, 100 mM NaCl, room temperature, 1 h; anti-FLAG-HRP or anti-HA-HRP, chemiluminescence; both purified
T2 sequence (peptide): AHLVHADRDPEKARS

[3] = target: T3, RDR2 peptide 9 of the RDR2_(771–970) peptide array (A. thaliana) (UniProt O82504); assay: as above
T3 sequence (peptide): PPMDYAGSRPRLMDH

[4] = target: T4, RDR2 fused to the Gal4 DNA binding domain or the Gal4 activation domain (A. thaliana) (UniProt O82504); assay: two-hybrid; yeast two-hybrid, S. cerevisiae MaV203, Gal4 DBD (pDEST32) bait and Gal4 AD (pDEST22) prey, growth on medium lacking Trp, Leu, His with 25 mM 3AT, 3 d at 30 °C
T4 sequence: T1 sequence

binding [1]: no binding
B1: recombinant RNA-… RNA POLYMERASE 2 (RDR2), wild type, with N-terminal V5 epitope and 6xHis tags (enzyme, UniProt O82504 1-1133)
chain: T1 sequence

binding [2]: no binding | binding [3]: no binding
B2: recombinant NRPD1_(1–300) with His and FLAG tags, made in E. coli (domain or fragment, A. thaliana, UniProt Q9LQ02 1-300, looked up)
chain: MEDDCEELQVPVGTLTSIGFSISNNNDRDKMSVLEVEAPNQVTDSRLGLPNPDSVCRTCGSKDRKVCEGHFGVINFAYSIINPYFLKEVAALLNKICPGCKYIRKKQFQITEDQPERCRYCTLNTGYPLMKFRVTTKEVFRRSGIVVEVNEESLMKLKKRGVLTLPPDYWSFLPQDSNIDESCLKPTRRIITHAQVYALLLGIDQRLIKKDIPMFNSLGLTSFPVTPNGYRVTEIVHQFNGARLIFDERTRIYKKLVGFEGNTLELSSRVMECMQYSRLFSETVSSSKDSANPYQKKSDT
notes: NRPD1, A. thaliana, amino acids 1-300 of 1,453; More in SI Appendix, Methods; also called NRPD1_(1–300)-FLAG; FLAG-tagged NRPD1_(1–300); source: E. coli (pET28 vector), purified (nickel-NTA by the methods; by its C-terminal FLAG tag by the results); not shown: FLAG, C-terminal, kept

binding [4]: binds
B3: NRPD1 fused to the Gal4 DNA binding domain or the Gal4 activation domain (protein, UniProt Q9LQ02 1-1453)
chain: MEDDCEELQVPVGTLTSIGFSISNNNDRDKMSVLEVEAPNQVTDSRLGLPNPDSVCRTCGSKDRKVCEGHFGVINFAYSIINPYFLKEVAALLNKICPGCKYIRKKQFQITEDQPERCRYCTLNTGYPLMKFRVTTKEVFRRSGIVVEVNEESLMKLKKRGVLTLPPDYWSFLPQDSNIDESCLKPTRRIITHAQVYALLLGIDQRLIKKDIPMFNSLGLTSFPVTPNGYRVTEIVHQFNGARLIFDERTRIYKKLVGFEGNTLELSSRVMECMQYSRLFSETVSSSKDSANPYQKKSDTPKLCGLRFMKDVLLGKRSDHTFRTVVVGDPSLKLNEIGIPESIAKRLQVSEHLNQCNKERLVTSFVPTLLDNKEMHVRRGDRLVAIQVNDLQTGDKIFRSLMDGDTVLMNRPPSIHQHSLIAMTVRILPTTSVVSLNPICCLPFRGDFDGDCLHGYVPQSIQAKVELDELVALDKQLINRQNGRNLLSLGQDSLTAAYLVNVEKNCYLNRAQMQQLQMYCPFQLPPPAIIKASPSSTEPQWTGMQLFGMLFPPGFDYTYPLNNVVVSNGELLSFSEGSAWLRDGEGNFIERLLKHDKGKVLDIIYSAQEMLSQWLLMRGLSVSLADLYLSSDLQSRKNLTEEISYGLREAEQVCNKQQLMVESWRDFLAVNGEDKEEDSVSDLARFCYERQKSATLSELAVSAFKDAYRDVQALAYRYGDQSNSFLIMSKAGSKGNIGKLVQHSMCIGLQNSAVSLSFGFPRELTCAAWNDPNSPLRGAKGKDSTTTESYVPYGVIENSFLTGLNPLESFVHSVTSRDSSFSGNADLPGTLSRRLMFFMRDIYAAYDGTVRNSFGNQLVQFTYETDGPVEDITGEALGSLSACALSEAAYSALDQPISLLETSPLLNLKNVLECGSKKGQREQTMSLYLSEYLSKKKHGFEYGSLEIKNHLEKLSFSEIVSTSMIIFSPSSNTKVPLSPWVCHFHISEKVLKRKQLSAESVVSSLNEQYKSRNRELKLDIVDLDIQNTNHCSSDDQAMKDDNVCITVTVVEASKHSVLELDAIRLVLIPFLLDSPVKGDQGIKKVNILWTDRPKAPKRNGNHLAGELYLKVTMYGDRGKRNCWTALLETCLPIMDMIDWGRSHPDNIRQCCSVYGIDAGRSIFVANLESAVSDTGKEILREHLLLVADSLSVTGEFVALNAKGWSKQRQVESTPAPFTQACFSSPSQCFLKAAKEGVRDDLQGSIDALAWGKVPGFGTGDQFEIIISPKVHGFTTPVDVYDLLSSTKTMRRTNSAPKSDKATVQPFGLLHSAFLKDIKVLDGKGIPMSLLRTIFTWKNIELLSQSLKRILHSYEINELLNERDEGLVKMVLQLHPNSVEKIGPGVKGIRVAKSKHGDSCCFEVVRIDGTFEDFSYHKCVLGATKIIAPKKMNFYKSKYLKNGTLESGGFSENP
